Screening data, single-dose tests

By UniProt entry, the sequences of proteins in these tests, tags left out. Residues count along the entry.
UniProt Q8IDJ8, 1-583: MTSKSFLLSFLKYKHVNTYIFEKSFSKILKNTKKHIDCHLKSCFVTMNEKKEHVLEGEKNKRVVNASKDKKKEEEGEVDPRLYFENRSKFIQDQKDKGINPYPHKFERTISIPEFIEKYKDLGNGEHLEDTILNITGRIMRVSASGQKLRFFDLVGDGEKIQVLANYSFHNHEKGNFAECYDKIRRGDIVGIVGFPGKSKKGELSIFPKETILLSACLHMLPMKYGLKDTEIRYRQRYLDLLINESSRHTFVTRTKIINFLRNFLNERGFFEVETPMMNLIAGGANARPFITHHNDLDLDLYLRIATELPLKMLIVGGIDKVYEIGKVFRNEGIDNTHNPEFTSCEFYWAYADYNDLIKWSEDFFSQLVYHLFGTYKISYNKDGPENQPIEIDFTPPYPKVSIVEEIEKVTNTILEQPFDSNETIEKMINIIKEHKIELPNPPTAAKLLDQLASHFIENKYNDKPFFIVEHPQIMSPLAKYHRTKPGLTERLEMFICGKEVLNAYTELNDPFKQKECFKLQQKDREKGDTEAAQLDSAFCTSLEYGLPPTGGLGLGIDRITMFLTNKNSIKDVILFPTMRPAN
UniProt I6X8D2, whole entry: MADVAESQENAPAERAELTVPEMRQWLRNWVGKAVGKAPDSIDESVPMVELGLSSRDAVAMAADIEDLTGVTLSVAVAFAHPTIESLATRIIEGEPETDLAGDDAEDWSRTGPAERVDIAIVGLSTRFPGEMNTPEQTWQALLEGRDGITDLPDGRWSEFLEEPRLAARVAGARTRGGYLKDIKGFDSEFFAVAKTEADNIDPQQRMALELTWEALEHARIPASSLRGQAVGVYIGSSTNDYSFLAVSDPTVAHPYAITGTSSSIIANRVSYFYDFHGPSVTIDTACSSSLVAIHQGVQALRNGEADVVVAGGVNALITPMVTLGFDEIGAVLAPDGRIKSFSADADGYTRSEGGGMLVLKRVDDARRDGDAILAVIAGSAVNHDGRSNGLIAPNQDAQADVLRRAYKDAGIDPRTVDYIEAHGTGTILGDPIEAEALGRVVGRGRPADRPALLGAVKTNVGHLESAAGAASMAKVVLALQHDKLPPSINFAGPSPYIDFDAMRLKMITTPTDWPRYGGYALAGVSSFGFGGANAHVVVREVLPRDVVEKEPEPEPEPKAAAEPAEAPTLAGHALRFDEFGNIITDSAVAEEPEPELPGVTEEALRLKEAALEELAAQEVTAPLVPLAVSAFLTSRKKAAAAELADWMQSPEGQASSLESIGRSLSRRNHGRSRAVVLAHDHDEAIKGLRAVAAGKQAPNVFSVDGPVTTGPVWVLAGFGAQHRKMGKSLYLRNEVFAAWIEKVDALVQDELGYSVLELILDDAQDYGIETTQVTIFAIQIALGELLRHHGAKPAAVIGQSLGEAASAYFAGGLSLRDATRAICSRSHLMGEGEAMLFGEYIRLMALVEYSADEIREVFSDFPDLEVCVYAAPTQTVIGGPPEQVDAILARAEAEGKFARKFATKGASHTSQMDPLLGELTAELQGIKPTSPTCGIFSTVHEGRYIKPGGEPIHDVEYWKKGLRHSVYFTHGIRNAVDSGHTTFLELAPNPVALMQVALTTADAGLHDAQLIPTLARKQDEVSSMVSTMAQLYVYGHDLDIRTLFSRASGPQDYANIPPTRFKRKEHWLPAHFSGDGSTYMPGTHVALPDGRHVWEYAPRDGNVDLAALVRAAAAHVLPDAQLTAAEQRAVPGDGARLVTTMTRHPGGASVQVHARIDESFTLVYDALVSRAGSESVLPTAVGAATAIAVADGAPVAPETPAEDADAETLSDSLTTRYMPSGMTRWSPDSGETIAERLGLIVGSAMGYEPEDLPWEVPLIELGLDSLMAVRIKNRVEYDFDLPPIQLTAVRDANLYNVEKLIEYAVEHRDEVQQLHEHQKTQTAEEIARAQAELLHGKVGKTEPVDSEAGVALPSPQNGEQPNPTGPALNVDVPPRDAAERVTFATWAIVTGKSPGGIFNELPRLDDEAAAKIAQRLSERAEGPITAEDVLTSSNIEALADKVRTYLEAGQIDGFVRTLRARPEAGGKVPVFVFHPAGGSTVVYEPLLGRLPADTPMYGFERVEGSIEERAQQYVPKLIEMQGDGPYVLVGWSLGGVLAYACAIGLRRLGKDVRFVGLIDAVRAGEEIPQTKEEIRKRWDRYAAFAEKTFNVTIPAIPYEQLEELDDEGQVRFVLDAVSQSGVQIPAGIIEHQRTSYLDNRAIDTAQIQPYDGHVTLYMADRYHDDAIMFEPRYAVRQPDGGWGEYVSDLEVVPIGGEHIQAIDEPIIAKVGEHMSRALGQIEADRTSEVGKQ
UniProt P9WPC5, whole entry: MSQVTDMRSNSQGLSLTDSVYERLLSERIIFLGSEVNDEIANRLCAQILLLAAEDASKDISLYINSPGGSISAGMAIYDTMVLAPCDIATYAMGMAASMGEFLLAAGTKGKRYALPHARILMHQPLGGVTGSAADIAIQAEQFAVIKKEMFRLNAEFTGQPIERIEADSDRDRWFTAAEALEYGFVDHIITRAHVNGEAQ
UniProt P9WPC3, whole entry partner: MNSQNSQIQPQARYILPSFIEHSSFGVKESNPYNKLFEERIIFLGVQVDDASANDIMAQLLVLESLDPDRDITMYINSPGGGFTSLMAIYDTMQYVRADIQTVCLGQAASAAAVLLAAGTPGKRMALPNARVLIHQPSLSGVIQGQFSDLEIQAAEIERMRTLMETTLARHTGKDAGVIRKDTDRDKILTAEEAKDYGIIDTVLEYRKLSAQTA

The values are deposited in ChEMBL (CHEMBL3988442, “University of Dundee, Small-Polar-MMV Screening Library” (2021)).

PfKRS1: 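Enzyme assay of the cytosolic lysyl-tRNA synthetase in 384-well plates, read by luminescence. Target: Lysine-tRNA ligase, Plasmodium falciparum 3D7 (UniProt Q8IDJ8). Compounds at 30 µM. Higher reads as stronger inhibition, judged from the few compounds that gave an IC50. About 69,000 compounds were tested under these conditions; 0.071% (about 49) showed 50% or more at least once.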
Pks13 thioesterase: 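Polyketide synthase Pks13, Mycobacterium tuberculosis (UniProt I6X8D2). Enzyme assay of the thioesterase domain of polyketide synthase 13; the read-out is not stated. Compounds at 30 µM. The record gives no direction; the compounds picked for IC50 retests had high values, so higher reads as stronger inhibition. Of about 67,000 compounds tested this way, about 300 (0.46%) reached 50% or more in at least one test.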
ClpP1P2: 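Protease assay of ClpP1P2, read by the AMC dye that it sets free. Target: ClpP1P2, Mycobacterium tuberculosis (UniProt P9WPC5 and UniProt P9WPC3). Concentration: 50 µM. Direction is inferred from only a few compounds that gave an IC50; most scored high, so higher reads as stronger inhibition. Most other retested compounds had strongly negative values. Of about 69,000 compounds tested this way, about 10 (0.015%) reached 50% or more in at least one test.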

The filed quantity is “Percent Effect” (%). How 0% and 100% were set is not recorded. Most values in the screen are low, and negative values occur. The compounds are a random part of those screened.

{"compound": "Cc1ccc([C@]2(O)CC[C@H]3CN(Cc4ccccc4F)C[C@H]32)nc1", "PfKRS1": 4.8, "Pks13 thioesterase": 0.4782, "ClpP1P2": -2.211}
{"compound": "CCc1nccn1C1CCCN(C(=O)c2ccc(-n3ccnc3)cc2)C1", "stereo": "centres unmarked", "PfKRS1": -0.6938, "Pks13 thioesterase": 0.5776, "ClpP1P2": -17.52}
{"compound": "COc1cccc([C@@]2(O)CC[C@@H]3CN(C(=O)c4ccn(C)n4)C[C@@H]32)c1", "PfKRS1": 1.041, "Pks13 thioesterase": 2.195, "ClpP1P2": -6.638}
{"compound": "CCc1nc(C2CCCN2C(=O)c2cc(C3CC3)[nH]n2)no1", "stereo": "centres unmarked", "PfKRS1": 1.854, "Pks13 thioesterase": -10.83, "ClpP1P2": 0.2389}
{"compound": "CS(=O)(=O)N1CCC2(CC1)CC(CC(=O)N1CCCC1)c1ccccc12", "stereo": "centres unmarked", "PfKRS1": 5.866, "Pks13 thioesterase": -5.595, "ClpP1P2": 4.617}
{"compound": "COc1cccc2c1ccn2CCNC(=O)C1CCC1", "PfKRS1": 6.474, "Pks13 thioesterase": -19.15, "ClpP1P2": -3.098}
{"compound": "FC1(F)CCNCC12CCN(c1cccnc1)C2", "stereo": "centres unmarked", "PfKRS1": -1.742, "Pks13 thioesterase": 9.179, "ClpP1P2": 5.018}
{"compound": "O=C1CC2(CCN(C(=O)c3ccncc3)CC2)Oc2c(Cl)cc(Cl)cc21", "PfKRS1": 2.234, "Pks13 thioesterase": 21.07, "ClpP1P2": -8.21}
{"compound": "CC(O)CN1CCC(CN(C)Cc2ccc(C(N)=O)cc2)CC1", "stereo": "centres unmarked", "PfKRS1": 3.742, "Pks13 thioesterase": -44.77, "ClpP1P2": -0.8565}
{"compound": "Cc1nnc2n1CCN(C(=O)C(OC1CCCC1)c1ccccc1)C2", "stereo": "centres unmarked", "PfKRS1": 3.576, "ClpP1P2": -5.639}
{"compound": "COc1ccc(CN2CCN(C(=O)N(C)C)[C@@H]3CS(=O)(=O)C[C@@H]32)cc1F", "PfKRS1": 0.1982, "Pks13 thioesterase": -11.27, "ClpP1P2": -5.641}
{"compound": "Cc1oc(C(=O)O)cc1S(=O)(=O)Nc1c(F)cccc1-n1cccn1", "PfKRS1": 2.314, "Pks13 thioesterase": -15.92, "ClpP1P2": -9.645}
{"compound": "CCc1noc(C(C)N2CCC(N3CCCCC3)CC2)n1", "stereo": "centres unmarked", "PfKRS1": 2.663, "Pks13 thioesterase": 3.407, "ClpP1P2": -20.01}
{"compound": "CCOCCC(=O)N1C[C@H]2CC[C@@H]1CN(Cc1ccncc1)C2", "PfKRS1": 1.728, "Pks13 thioesterase": -1.118, "ClpP1P2": -9.234}
{"compound": "Cn1cc(Cl)c(CN2CCn3nc(C(=O)N4CCCC4)cc3C2)n1", "PfKRS1": 6.329, "Pks13 thioesterase": -2.162, "ClpP1P2": -2.325}
{"compound": "COCC(=O)N1CC[C@@H](N2CCOCC2)[C@@H]1Cc1cccnc1", "PfKRS1": 4.536, "Pks13 thioesterase": 0.35, "ClpP1P2": -0.09928}
{"compound": "CCCc1nc(C(=O)N2CCn3nc(C(=O)OC)cc3C2)cs1", "PfKRS1": 1.797, "Pks13 thioesterase": -18.05, "ClpP1P2": 7.774}
{"compound": "COc1ccc(CC(=O)N(C)Cc2nnc3ccccn23)cc1", "PfKRS1": 2.553, "Pks13 thioesterase": -18.63, "ClpP1P2": 23.36}
{"compound": "Cc1noc2ncc(C(=O)N3CCCC3c3cnn(C)c3)cc12", "stereo": "centres unmarked", "PfKRS1": -1.553, "Pks13 thioesterase": 5.873, "ClpP1P2": -2.965}

For reference, 2 entries once more:

Compound,PfKRS1,Pks13 thioesterase,ClpP1P2
O=C1CC2(CCN(C(=O)c3ccncc3)CC2)Oc2c(Cl)cc(Cl)cc21,2.234,21.07,-8.21
FC1(F)CCNCC12CCN(c1cccnc1)C2 (centres unmarked),-1.742,9.179,5.018